# The supplement of paper PMC3334620
# The full ranking holds about 33,000 sequences; the median of “E-score (-0.5 to 0.5)” is about -0.0014, and the highest 2% start at about 0.25. Some of the results follow.
# Biological target: T1, Cad1 (UniProt P24813)
# T1 sequence: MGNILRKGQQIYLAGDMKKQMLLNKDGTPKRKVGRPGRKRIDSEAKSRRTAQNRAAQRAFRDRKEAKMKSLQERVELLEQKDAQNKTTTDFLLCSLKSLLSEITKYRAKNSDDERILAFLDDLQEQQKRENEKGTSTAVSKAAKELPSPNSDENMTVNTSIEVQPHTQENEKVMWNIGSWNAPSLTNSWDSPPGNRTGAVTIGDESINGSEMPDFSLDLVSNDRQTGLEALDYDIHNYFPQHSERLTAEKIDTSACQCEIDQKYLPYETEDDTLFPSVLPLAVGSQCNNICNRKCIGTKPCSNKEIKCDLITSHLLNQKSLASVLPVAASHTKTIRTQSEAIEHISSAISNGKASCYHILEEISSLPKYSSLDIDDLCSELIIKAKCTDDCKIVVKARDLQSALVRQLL
# Experiment: PBM E-score (8-mer binding enrichment) (E-score (-0.5 to 0.5)); higher = stronger / more preferred TF binding
# Conditions: protein concentration: 100 nM; construct: GST-full length
# How it was run: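 E-scores (a modified Wilcoxon-Mann-Whitney statistic) were assigned by the Universal PBM Analysis Suite to every ungapped eight-base word pooled with its reverse complement. The input came from universal all-10-mer Agilent arrays made double-stranded by primer extension and probed with GST-tagged yeast transcription factors at about 100-200 nM. Fluorescent anti-GST detected bound protein, and masliner normalised the scans.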
row,Sequence,PBM E-score
1,ACGGCCGA,0.191
2,CAGCGTCG,0.0191
3,ATGTAAGG,0.0288
4,CCAGAGCC,-0.0798
5,GACTAATA,0.372
6,CGCTTCTC,-0.0668
7,GGAACTGA,-0.105
8,ACGGATAG,0.0118
9,CAAACCCG,0.0302
10,AGTTAGCC,-0.0174
11,GATCTATA,0.0879
12,CTGGCCAC,0.00652
13,ACCTGTCC,-0.157
14,GATTTGTA,0.228
15,CGCTTTAG,0.0748
16,GTTGTTGA,0.19
17,TAGAAATA,0.0668
18,AGTGAACA,0.121
19,TGGTCGAA,-0.175
20,AGAATGCC,-0.0316
21,CCGGCAAA,0.138
22,GTAATAAA,0.187
23,AGCACAAT,-0.0595
24,ACACCATC,0.0408
25,GTCAGTTA,-0.0253

row,Sequence,PBM E-score
1,CATGTGGG,0.0224
2,CACAGTGA,0.0585
3,AACGGTTC,0.094
4,AAAGACAA,0.166
5,ACCTGTTC,-0.0841
6,ACCGACGT,0.183
7,ATCTACTG,0.0914
8,GCACGTTA,-0.0382
9,ACCATAAT,0.101
10,CCCAGGCG,-0.201
11,CTCTTCTC,-0.258
12,CATTCACA,0.0696
13,ACTTGCTC,-0.2
14,CATGTTTA,0.0394
15,TCAGGGAA,-0.0349
16,TCTTGCCA,-0.0865
17,GCGCCATA,-0.00134
18,AGTTTGCA,-0.0335
19,AAATGCAG,0.00669
20,CCGATCCC,-0.218
21,CGTCGTAA,-0.0847
22,CACAGATC,-0.0249
23,AATGGGTC,-0.202
24,AAATTCTG,0.188
25,AAGATTGG,-0.0113

row,Sequence,PBM E-score
1,GGCACGAC,-0.129
2,AGAGACTA,-0.224
3,CACAGCTC,-0.0387
4,CAACTTCC,-0.0977
5,ACCTAGTG,0.0789
6,CTACATAG,-0.0219
7,CTGATCCC,-0.169
8,ACCACGAC,0.0193
9,GCTTGCGA,0.118
10,ATTCATTG,0.172
11,AAGCTCAC,0.00427
12,AGATGGCT,-0.127
13,CCCCTCGG,-0.288
14,ATCACATG,0.00263
15,ACAACGGA,0.241
16,ATAAGTGA,-0.0226
17,AGCGTAGA,-0.292
18,AGCTGCCC,0.111
19,AATCAGGA,0.17
20,GCCAATAC,0.0227
21,GACCCGCC,0.0402
22,CTTTGAGA,0.0374
23,ATTCCGCA,-0.0887
24,AACCCATG,0.118
25,AAATGTTC,-0.00058

# Quoted at random: two entries already listed.
row,Sequence,PBM E-score
9,GCTTGCGA,0.118
2,AGAGACTA,-0.224

# (next part)

row,Sequence,PBM E-score
1,CTAAAAGC,-0.0963
2,CCCCCTTC,-0.476
3,CAACATTC,-0.0255
4,TGCCACAA,0.0765
5,CGTTACGC,0.0375
6,TAACGGAA,0.212
7,CACTTGGG,-0.164
8,ACCCGGGT,-0.0797
9,AGCGCTTC,0.122
10,CAAAATGG,0.012
11,CCCGAACG,-0.0332
12,ATGGCAAG,-0.0516
13,AGTATCAG,-0.0196
14,AAGAGCAT,-0.0967
15,ACATGGTG,-0.0624
16,CTCGAGGA,0.0981
17,ACGGGACC,-0.197
18,ACGTTATG,0.0915
19,CATGGCTA,0.0161
20,GCTTATTA,0.369
21,TCGCCTAA,0.0267
22,CCTAACAG,-0.023
23,GACGGGCA,-0.122
24,CGCAGTAC,-0.0866
25,AACTCGAA,0.0555

row,Sequence,PBM E-score
1,AGCTCATC,-0.208
2,GATGCAAC,-0.15
3,CGTTCAAC,0.202
4,CTTGCTGC,-0.232
5,ACACGAAG,0.0492
6,AGGAAAGG,-0.323
7,ACCGTGAG,-0.158
8,CTAGATCA,-0.11
9,TTAAGGAA,0.0663
10,GTACACCA,-0.0543
11,CAGACTCA,-0.0165
12,ACTCGCCG,0.023
13,CATCCCGC,-0.0517
14,GGACGATA,0.0381
15,CGTCGCGC,0.0379
16,ATACGAGG,-0.0819
17,AGCCGCGA,0.0704
18,ATGAGCGC,0.232
19,AAAGATTA,0.152
20,CGCTCTTC,-0.209
21,GATTCCGA,0.0654
22,AAACTAGT,0.0646
23,GGACAGAA,0.0717
24,CCATTTGA,0.0783
25,CGTGCTAA,0.0651

# Single values from the entries so far:
# For PBM E-score, AAAGATTA reads 0.152
# For PBM E-score, GTACACCA reads -0.0543
# For PBM E-score, ACACGAAG reads 0.0492
# For PBM E-score, GATGCAAC reads -0.15

# (continued)

row,Sequence,PBM E-score
1,AATCTTGT,0.122
2,GTCGCAGA,0.141
3,ACCCTCCC,0.133
4,GATCGACA,0.0809
5,ACGTCAAC,-0.0674
6,TACTCCAA,-0.122
7,AACGAAGG,-0.311
8,TCTTCGCA,0.193
9,CTTCAGTC,-0.127
10,GATCAGGC,0.00244
11,ATTGAGTG,0.0114
12,AGTCTAGA,-0.0977
13,TCCAAGGA,-0.19
14,ATCGCAAA,0.13
15,GAGCACTA,-0.099
16,GCGCTGGA,0.0157
17,TATTGCCA,-0.0673
18,ATTCGCTC,0.117
19,CGAAGTCA,0.0241
20,AAGATGGA,0.00363
21,GCTGCCCA,-0.0743
22,AGCGTTGG,0.056
23,GCTAATCA,0.215
24,ACAGCTCC,-0.0138
25,GATGTTCC,0.00466

row,Sequence,PBM E-score
1,ATTCGTAC,0.173
2,AAGAGATA,-0.00559
3,TACAATCA,0.0688
4,AAATGTAG,0.00878
5,CAGAGGTA,-0.015
6,GATGCCGC,-0.144
7,GGATCCAC,0.0158
8,GGGCTCAA,-0.18
9,AATTCGCA,0.0912
10,CGAGCTCG,0.227
11,GGCGTAGA,-0.156
12,CTAACACC,-0.0338
13,CGCGTAGC,-0.0194
14,CCCTACGG,-0.247
15,GATCACGA,0.0523
16,CTAGAATA,0.11
17,ATACTCGC,0.188
18,GACACTAC,-0.00121
19,CCTTCAGC,0.0456
20,CCGCGGAG,-0.00921
21,CAGACATA,0.0507
22,ATACATCA,0.139
